Our source for the binding values is PMC8254828.

Protein sequences, listed by entry. Tags and fused reporters are not part of them. Lines headed by an entry give the natural chain unless they say otherwise; changes in a name come on top. Chains listed by the source or under a name are the forms on record and can include a tag or linker. Residues count along the entry.
UniProt G5E8K5: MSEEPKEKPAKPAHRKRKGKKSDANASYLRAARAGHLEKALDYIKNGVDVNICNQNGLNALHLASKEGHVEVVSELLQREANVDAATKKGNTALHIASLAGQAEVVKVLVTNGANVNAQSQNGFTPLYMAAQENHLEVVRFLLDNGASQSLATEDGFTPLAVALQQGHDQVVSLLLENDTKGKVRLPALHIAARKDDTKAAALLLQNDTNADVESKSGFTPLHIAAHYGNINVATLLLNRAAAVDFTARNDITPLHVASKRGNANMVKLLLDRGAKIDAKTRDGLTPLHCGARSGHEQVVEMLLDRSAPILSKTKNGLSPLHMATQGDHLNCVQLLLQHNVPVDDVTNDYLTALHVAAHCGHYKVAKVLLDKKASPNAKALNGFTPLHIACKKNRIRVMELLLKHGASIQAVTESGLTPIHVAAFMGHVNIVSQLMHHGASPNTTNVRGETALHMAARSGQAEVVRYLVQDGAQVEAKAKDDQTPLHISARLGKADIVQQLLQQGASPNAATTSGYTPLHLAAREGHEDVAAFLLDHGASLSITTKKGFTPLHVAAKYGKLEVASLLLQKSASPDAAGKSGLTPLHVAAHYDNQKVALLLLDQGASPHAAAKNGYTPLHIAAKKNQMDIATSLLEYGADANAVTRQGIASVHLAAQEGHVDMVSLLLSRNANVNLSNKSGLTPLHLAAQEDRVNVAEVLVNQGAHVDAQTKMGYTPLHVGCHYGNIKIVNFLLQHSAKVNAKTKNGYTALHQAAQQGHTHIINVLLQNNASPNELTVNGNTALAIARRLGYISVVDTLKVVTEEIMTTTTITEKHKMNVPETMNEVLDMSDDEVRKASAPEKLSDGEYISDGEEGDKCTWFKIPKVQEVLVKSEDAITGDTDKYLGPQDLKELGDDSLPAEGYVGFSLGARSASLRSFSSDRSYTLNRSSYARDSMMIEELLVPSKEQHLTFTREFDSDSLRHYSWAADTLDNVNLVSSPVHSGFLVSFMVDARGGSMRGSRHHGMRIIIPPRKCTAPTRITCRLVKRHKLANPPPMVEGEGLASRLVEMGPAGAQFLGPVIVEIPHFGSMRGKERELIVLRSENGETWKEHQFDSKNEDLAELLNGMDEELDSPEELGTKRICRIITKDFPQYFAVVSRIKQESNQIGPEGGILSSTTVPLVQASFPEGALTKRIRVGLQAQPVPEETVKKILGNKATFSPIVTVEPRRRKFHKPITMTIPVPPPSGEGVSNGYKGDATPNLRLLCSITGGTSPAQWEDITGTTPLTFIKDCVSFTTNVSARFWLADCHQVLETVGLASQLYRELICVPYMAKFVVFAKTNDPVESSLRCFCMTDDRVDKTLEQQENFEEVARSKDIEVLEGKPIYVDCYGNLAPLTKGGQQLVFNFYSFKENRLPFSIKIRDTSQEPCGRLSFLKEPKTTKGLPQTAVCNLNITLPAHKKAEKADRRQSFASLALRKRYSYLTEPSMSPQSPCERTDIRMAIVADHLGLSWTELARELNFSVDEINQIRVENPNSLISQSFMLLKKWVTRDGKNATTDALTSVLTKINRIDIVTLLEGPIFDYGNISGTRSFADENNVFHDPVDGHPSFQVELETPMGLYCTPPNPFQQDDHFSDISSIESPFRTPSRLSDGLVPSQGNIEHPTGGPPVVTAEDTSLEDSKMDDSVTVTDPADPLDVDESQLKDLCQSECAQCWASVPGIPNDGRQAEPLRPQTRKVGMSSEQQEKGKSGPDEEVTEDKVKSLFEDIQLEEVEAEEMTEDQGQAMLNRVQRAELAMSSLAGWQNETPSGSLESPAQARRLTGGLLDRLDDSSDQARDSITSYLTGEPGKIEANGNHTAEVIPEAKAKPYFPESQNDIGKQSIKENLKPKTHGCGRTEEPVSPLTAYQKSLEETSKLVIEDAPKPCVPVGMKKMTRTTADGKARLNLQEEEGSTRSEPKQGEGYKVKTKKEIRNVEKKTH
HA-tagged ankyrin-G 1–807 (ankyrin-repeat domain): residues 1-807 of G5E8K5
HA-tagged ankyrin-G 1476–1961 (regulatory domain): residues 1476-1961 of G5E8K5

Assay [1] concerns the target 3XHA-ankyrin-G (ankyrin-G 190, wild type) (UniProt G5E8K5). In words: proximity ligation; COS7 cells transfected with 3XFlag-Homer1c and 3XHA-ankyrin-G (WT or point mutants), fixed 24 h after transfection; Duolink In Situ FarRed; confocal images.
Assay [2] deals with 3XHA-ankyrin-G F1609R (UniProt G5E8K5). The description is as above.
In assay [3] the target is 3XHA-ankyrin-G P1606L (UniProt G5E8K5). Described as above.
The target of assay [4] is 3XHA-ankyrin-G (ankyrin-G 190, wild type) (UniProt G5E8K5). In words: co-IP; HEK293T cells transfected with 3XHA-ankyrin-G (full length, fragments or point mutants) and 3XFlag-Homer1c; lysate immunoprecipitated, blots with HA or Flag antibody.
In assay [5] the target is HA-tagged ankyrin-G 1476–1961 (regulatory domain) (UniProt G5E8K5). The assay is described as above.
Assay [6] deals with 3XHA-ankyrin-G F1609R (UniProt G5E8K5). Described as above.
In assay [7] the target is 3XHA-ankyrin-G P1606L (UniProt G5E8K5). The description is as above.
For assay [8], the target named is HA-tagged ankyrin-G 1–807 (ankyrin-repeat domain) (UniProt G5E8K5). The assay is described as above.

No constants are given. Whether binding was seen depends on the method and setting. Binding seen in cells or lysates may run through a third protein. Some binding calls cover weakened binding; strength is not graded here. Sequences can lack the tags named with a protein.

B1: 3XFlag-Homer1c (protein, UniProt Q9Z2Y3 1-366)
chain: MGEQPIFSTRAHVFQIDPNTKKNWVPTSKHAVTVSYFYDSTRNVYRIISLDGSKAIINSTITPNMTFTKTSQKFGQWADSRANTVYGLGFSSEHHLSKFAEKFQEFKEAARLAKEKSQEKMELTSTPSQESAGGDLQSPLTPESINGTDDERTPDVTQNSEPRAEPTQNALPFPHSAGDRTQALSHASSAISKHWEAELATLKGNNAKLTAALLESTANVKQWKQQLAAYQEEAERLHKRVTELECVSSQANAVHSHKTELNQTVQELEETLKVKEEEIERLKQEIDNARELQEQRDSLTQKLQEVEIRNKDLEGQLSDLEQRLEKSQNEQEAFRSNLKTLLEILDGKIFELTELRDNLAKLLECS
As to B1, the binding result in assay [1], in assay [2], in assay [3], in assay [4], in assay [5] and in assay [6] was “binds” in each case. The binding result in assay [7] is recorded as “binds”; in assay [8] it was “binds weakly”.
